Construct, isoform or probe ends are uncertain for at least one entry. At least one result comes from cells or an extract, where the contact may be indirect.
Target: HER2 on cell surface (SKOV3, SKBR3) (UniProt P04626)
Assay: competition with a labelled probe
Details: 100-fold excess on SKOV3, blocks anti-HER2 antibody and reduces labeled aptamer binding; Selection buffer: 10 mM HEPES, 120 mM NaCl, 5 mM MgCl2, 5 mM KCl; pH not stated; SPRi temperature not stated (50 uL/min, 50 or 100 nM HER2, BSA-blocked chip); protein on the cell surface; single-stranded DNA

Sequence	binding result
ATTAAGAACCATCACTCTTCCAAATGGATATACGACTGGG [HeA2_1 non-fluorescent competitor]	binds
TCTAAAAGGATTCTTCCCAAGGGGATCCAATTCAAACAGC [HeA2_3 non-fluorescent competitor]	binds

— paper PMC4932547, “Improved Aptamers for the Diagnosis and Potential Treatment of HER2-Positive Cancer”
